# From US20200377561A1, “ANTIMICROBIAL PEPTIDES AND METHODS OF TREATING GRAM-NEGATIVE PATHOGEN INFECTIONS: POLAR AND NON-POLAR FACE ANALOGS” (THE REGENTS OF THE UNIVERSITY OF COLORADO, a body corporate, priority 2017, published 2020)
# Peptide text beside a SMILES is read from it.
# Test system: Human erythrocytes
# Assay: Haemolysis assay using human blood
# Type: cell-based
# Details: therapeutic index, HC50 over A. baumannii NCTC13420 MIC
# Experimental: To determine the extent of haemolytic activity (the ability to lyse red blood cells) in test peptides, a haemolysis assay was conducted using human blood (BioIVT, West Sussex, UK). Human erythrocytes were exposed to a single fixed concentration or a range of concentrations as to determine the % haemolysis (fixed concentration) or the concentration at which 50% haemolysis occurred (HC50), respectively. Prior to the assay, whole human blood was repeatedly washed in phosphate buffered saline (PBS) under cooled conditions to remove the buffy coat, plasma and cell debris. Washed erythrocytes were diluted as to achieve 1×10^8 cells/mL in PBS. Prepared human erythrocyte samples were combined with peptide at a single fixed concentration of 128 μg/mL, or a range of concentrations (two-fold dilution series) from 1000-31.25 μg/mL. Positive and negative controls containing 2% (v/v) Triton X-100 and PBS alone, respectively, were also prepared. Samples were incubated at 37° C. for 1 hour and then centrifuged to collect intact erythrocytes. Haemoglobin release was determined by recording the optical density of the supernatant at 540 nm. Optical density values were transformed to a percentage of the positive control. Results were recorded as a percentage haemolysis at 128 μg/mL, or by plotting the percentage haemolysis versus concentration and extrapolating the HC50 using linear regression analysis (Table 2 above)
# The therapeutic index is a widely-accepted parameter to represent the specificity of antimicrobial peptides for prokaryotic versus eukaryotic cells. It is calculated by the ratio of hemolytic activity and antimicrobial activity (MIC) (Table 2 above); thus, larger values of therapeutic index indicate greater specificity for prokaryotic cells. With the peptides used in this study the inventors used the HC50/MIC ratio value to calculate the therapeutic index.
row,SMILES,HC50/A.b MIC selectivity ratio
1,CC(=O)N[C@H](C)C(=O)N[C@H](CC(C)C)C(=O)N[C@H](CCCCN)C(=O)N[C@H](CCCCN)C(=O)N[C@H](CC(C)C)C(=O)N[C@H](CC(C)C)C(=O)N[C@H](CCCCN)C(=O)N[C@H](CCCCN)C(=O)N[C@H](CC(C)C)C(=O)N[C@H](CO)C(=O)N[C@H](CO)C(=O)N[C@H](C)C(=O)N[C@H](CN)C(=O)N[C@H](CO)C(=O)N[C@H](CO)C(=O)N[C@H](CN)C(=O)N[C@H](CC(C)C)C(=O)N[C@H](CO)C(=O)N[C@@H](C(=O)N[C@H](CC(C)C)C(=O)N[C@H](CC(C)C)C(=O)N[C@H](CCCCN)C(=O)N[C@H](CCCCN)C(=O)N[C@H](CC(C)C)C(=O)N[C@H](CCCCN)C(=O)N[C@H](CCCCN)C(N)=O)[C@H](C)O [compound 21] (HELM PEPTIDE1{[ac].[dA].[dL].[dK].[dK].[dL].[dL].[dK].[dK].[dL].[dS].[dS].[dA].[NC[C@@H](N[*:1])C(=O)[*:2]].[dS].[dS].[NC[C@@H](N[*:1])C(=O)[*:2]].[dL].[dS].[dT].[dL].[dL].[dK].[dK].[dL].[dK].[dK].[am]}$$$$V2.0),>500
2,CC(=O)N[C@H](C)C(=O)N[C@H](CC(C)C)C(=O)N[C@H](CO)C(=O)N[C@H](CO)C(=O)N[C@H](CC(C)C)C(=O)N[C@H](CC(C)C)C(=O)N[C@H](CO)C(=O)N[C@H](CCCCN)C(=O)N[C@H](CC(C)C)C(=O)N[C@H](CCCCN)C(=O)N[C@H](CCCCN)C(=O)N[C@H](C)C(=O)N[C@H](CCCCN)C(=O)N[C@H](CCCCN)C(=O)N[C@H](CCCCN)C(=O)N[C@H](CCCCN)C(=O)N[C@H](CC(C)C)C(=O)N[C@H](CCCCN)C(=O)N[C@H](CCCCN)C(=O)N[C@H](CC(C)C)C(=O)N[C@H](CC(C)C)C(=O)N[C@H](CCCCN)C(=O)N[C@H](C)C(=O)N[C@H](CC(C)C)C(=O)N[C@H](CO)C(=O)N[C@H](CO)C(N)=O [compound 10] (HELM PEPTIDE1{[ac].[dA].[dL].[dS].[dS].[dL].[dL].[dS].[dK].[dL].[dK].[dK].[dA].[dK].[dK].[dK].[dK].[dL].[dK].[dK].[dL].[dL].[dK].[dA].[dL].[dS].[dS].[am]}$$$$V2.0),>500
3,CC(=O)N[C@H](C)C(=O)N[C@H](CC(C)C)C(=O)N[C@H](CCCCN)C(=O)N[C@H](CCCCN)C(=O)N[C@H](CC(C)C)C(=O)N[C@H](CC(C)C)C(=O)N[C@H](CCCCN)C(=O)N[C@H](CCCCN)C(=O)N[C@H](CC(C)C)C(=O)N[C@H](CO)C(=O)N[C@H](CO)C(=O)N[C@H](C)C(=O)N[C@H](CCCCN)C(=O)N[C@H](CO)C(=O)N[C@H](CO)C(=O)N[C@H](CCCCN)C(=O)N[C@H](CC(C)C)C(=O)N[C@H](CO)C(=O)N[C@H](CO)C(=O)N[C@H](CC(C)C)C(=O)N[C@H](CC(C)C)C(=O)N[C@H](CCCCN)C(=O)N[C@H](CCCCN)C(=O)N[C@H](CC(C)C)C(=O)N[C@H](CCCCN)C(=O)N[C@H](CCCCN)C(N)=O [compound 25] (HELM PEPTIDE1{[ac].[dA].[dL].[dK].[dK].[dL].[dL].[dK].[dK].[dL].[dS].[dS].[dA].[dK].[dS].[dS].[dK].[dL].[dS].[dS].[dL].[dL].[dK].[dK].[dL].[dK].[dK].[am]}$$$$V2.0),>1000
